These are yes or no findings as the source states them, for the method shown. For some of these results: Binding seen in cells or lysates may run through a third protein. Some results given as binding are weak or reduced against the parent protein; the word gives no strength.
Legend:
[1] = molecular target: EsxT-His8 (M. tuberculosis) (UniProt I6YC53); experiment: pull-down
[2] = molecular target: EsxF_(His8) (M. tuberculosis) (UniProt P9WNH6); experiment: pull-down
[3] = molecular target: EsxT (of the purified EsxUT complex) (M. tuberculosis) (UniProt I6YC53); experiment: co-purification

Chains of the proteins cited; added tags and fusions are not shown.
UniProt I6YC53, whole entry: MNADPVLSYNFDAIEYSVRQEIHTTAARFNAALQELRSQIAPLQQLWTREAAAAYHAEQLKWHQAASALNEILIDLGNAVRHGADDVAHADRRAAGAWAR
UniProt P9WNH6, whole entry: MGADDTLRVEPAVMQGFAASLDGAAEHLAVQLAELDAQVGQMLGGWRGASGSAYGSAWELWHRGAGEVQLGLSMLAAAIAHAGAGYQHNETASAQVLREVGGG
UniProt P9WNH8, whole entry: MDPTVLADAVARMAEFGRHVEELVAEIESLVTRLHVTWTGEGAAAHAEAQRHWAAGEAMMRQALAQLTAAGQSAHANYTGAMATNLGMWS
UniProt I6Y3I6, whole entry: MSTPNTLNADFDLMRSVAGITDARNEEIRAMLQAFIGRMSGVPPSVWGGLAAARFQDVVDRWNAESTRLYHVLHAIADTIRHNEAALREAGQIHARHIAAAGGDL

## EsxE (control pull-down with EsxT-His8) (from UniProt P9WNH8 1-90)
[1]
  binding: binds

## EsxE_(FLAG) (from UniProt P9WNH8 1-90)
[2]
  binding: binds

## EsxF (control pull-down with EsxT-His8) (from UniProt P9WNH6 1-103)
[1]
  binding: binds

## EsxTMyc (from UniProt I6YC53 1-100)
[2]
  binding: binds

## EsxU (control pull-down with EsxT-His8) (from UniProt I6Y3I6 1-105)
[1]
  binding: binds

## EsxU (of the purified EsxUT complex) (from UniProt I6Y3I6 1-105)
[3]
  binding: binds

## HAEsxU (from UniProt I6Y3I6 1-105)
[2]
  binding: binds
